Data on 39 sequences can be found in article PMC7862700.

The list shows a part of the results. The source does not settle which construct or isoform was used.

The target of this assay is T1, ELF2 (UniProt Q15723).
T1 sequence: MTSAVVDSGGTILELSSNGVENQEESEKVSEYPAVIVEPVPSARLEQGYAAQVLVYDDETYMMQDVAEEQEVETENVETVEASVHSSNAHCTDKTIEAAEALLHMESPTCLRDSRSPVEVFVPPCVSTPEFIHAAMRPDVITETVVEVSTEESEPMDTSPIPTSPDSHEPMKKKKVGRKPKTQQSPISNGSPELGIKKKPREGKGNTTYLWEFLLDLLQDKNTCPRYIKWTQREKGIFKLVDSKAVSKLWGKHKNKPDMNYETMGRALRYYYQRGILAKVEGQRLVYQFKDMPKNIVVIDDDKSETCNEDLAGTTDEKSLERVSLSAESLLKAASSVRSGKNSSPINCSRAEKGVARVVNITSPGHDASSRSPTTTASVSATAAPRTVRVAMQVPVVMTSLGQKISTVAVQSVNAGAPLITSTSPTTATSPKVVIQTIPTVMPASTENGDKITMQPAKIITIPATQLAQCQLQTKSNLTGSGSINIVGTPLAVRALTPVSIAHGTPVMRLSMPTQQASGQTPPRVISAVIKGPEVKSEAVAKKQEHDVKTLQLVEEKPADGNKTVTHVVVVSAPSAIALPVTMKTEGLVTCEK
Nature of the assay: DAPPL (digital affinity profiling via proximity ligation, sequencing). The settings on record: 10 mM Tris-HCl pH 7.5, 50 mM NaCl, 1 mM DTT, 4% glycerol, room temperature, 30 min; GST-TFs on glutathione beads, 16-mer random dsDNA library, 0.1% …; high values mean tight binding; double strand, one strand shown; scale: fold enrichment (6-mer frequency, TF over GST control).
For CAATAT, the binding signal was 1.28.
Under GCTGAA stands 1.13.
Under AAGTCT stands 1.18.
To TATAAG belongs 1.12; to TACTCG, 1.19.
With TTACCG, the binding signal came to 1.25.
To ATGCAA belongs 1.17.
GCTTCG gave a binding signal of 1.28.
Under AACGTC stands 1.09.
CTTGTT displayed a binding signal of 1.22.
To CTGACT belongs 1.32; to ACCTAC, 1.16; to TTTATA, 1.33.
Consider GCTCCA, for which the binding signal turned out to be 1.19.
To GAAATG belongs 1.91; to TCAATA, 1.14.
To CGCCGA belongs 1.09.
CGATGA came in with a binding signal of 0.972.
Under GGGCCT stands 1.19.
To CACTTC belongs 5.01; to AATAGC, 1.13.
In turn, TCTTCT came in with a binding signal of 1.21.
To AGCTAC belongs 1.11.
In the case of TCCCTT, the binding signal turned out to be 1.58.
Under GCAAAA stands 1.04; under TCTCGA, 1.27.
To AAGGTA belongs 1.08; to TAAGAT, 1.2; to AAAATC, 1.15.
To TACGAA belongs 1.21.
TTAATG displayed a binding signal of 1.15.
To TAACCT belongs 1.22; to CGAAGC, 1.2.
Consider TCTAGT, for which the binding signal came to 1.08.
Sequence ATCACC registered a binding signal of 1.07.
To TCTTAA belongs 1.19.
Under CATTCC stands 1.28; under CTTAGA, 1.03.
To TTAGCG belongs 1.
